Results on two molecules are retold here after patent US20070224199A1.

Chains of the proteins cited; added tags and fusions are not shown. Lines headed by an entry give the natural chain unless they say otherwise; changes in a name come on top. Residues count along the entry.
UniProt O14746: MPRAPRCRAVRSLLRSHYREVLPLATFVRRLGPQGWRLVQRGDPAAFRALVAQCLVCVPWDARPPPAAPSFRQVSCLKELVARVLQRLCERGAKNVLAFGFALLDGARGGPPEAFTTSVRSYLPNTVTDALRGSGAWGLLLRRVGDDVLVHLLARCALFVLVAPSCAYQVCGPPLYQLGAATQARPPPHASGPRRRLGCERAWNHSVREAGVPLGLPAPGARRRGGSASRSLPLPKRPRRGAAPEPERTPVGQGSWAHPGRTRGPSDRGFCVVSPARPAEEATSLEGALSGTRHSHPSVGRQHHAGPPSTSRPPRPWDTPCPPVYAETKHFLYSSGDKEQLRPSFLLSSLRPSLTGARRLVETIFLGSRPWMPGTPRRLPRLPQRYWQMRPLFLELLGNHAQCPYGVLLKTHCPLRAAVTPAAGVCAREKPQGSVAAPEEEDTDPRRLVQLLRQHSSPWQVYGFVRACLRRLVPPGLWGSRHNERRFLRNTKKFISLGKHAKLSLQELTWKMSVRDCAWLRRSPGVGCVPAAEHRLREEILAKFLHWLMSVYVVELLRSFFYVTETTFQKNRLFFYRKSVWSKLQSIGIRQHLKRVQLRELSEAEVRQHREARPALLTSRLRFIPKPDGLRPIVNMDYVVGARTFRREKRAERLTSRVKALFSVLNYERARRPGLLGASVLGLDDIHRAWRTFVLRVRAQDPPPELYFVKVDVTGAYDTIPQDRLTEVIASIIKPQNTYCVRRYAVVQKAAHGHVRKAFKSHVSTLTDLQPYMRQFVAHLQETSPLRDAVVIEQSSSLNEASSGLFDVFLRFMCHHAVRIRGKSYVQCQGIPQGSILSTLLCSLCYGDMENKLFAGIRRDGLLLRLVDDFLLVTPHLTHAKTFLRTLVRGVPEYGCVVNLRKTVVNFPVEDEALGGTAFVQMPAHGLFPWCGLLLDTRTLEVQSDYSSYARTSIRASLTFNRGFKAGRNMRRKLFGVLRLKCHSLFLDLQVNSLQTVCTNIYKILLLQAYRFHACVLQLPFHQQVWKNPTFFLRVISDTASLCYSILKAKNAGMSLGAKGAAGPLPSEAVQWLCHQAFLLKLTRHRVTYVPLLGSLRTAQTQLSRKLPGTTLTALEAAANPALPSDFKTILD
pLexA-hTERT (amino acid 946-1132) bait: residues 946-1132 of O14746

No constants are given. Whether binding was seen depends on the method and setting. For some of these results: Binding seen in cells or lysates may run through a third protein. Some binding calls cover weakened binding; strength is not graded here. Where a sequence is shown, tags or fusion partners need not be part of it.

In experiment [1] the target is pLexA-hTERT (amino acid 946-1132) bait (human) (UniProt O14746). Kind of experiment: yeast two-hybrid screen of a HeLa cDNA library, LacZ reporter.
Experiment [2] has the same target. Kind of experiment: figure title; yeast two-hybrid assay (panel A) and co-immunoprecipitation (panels C, D).
For experiment [3] the target is unchanged. The experiment is described as follows: yeast two-hybrid, LacZ reporter.
In experiment [4] the target is hTERT-HA (C-terminal HA-tagged hTERT) (human) (UniProt O14746). The experiment is described as follows: co-immunoprecipitation from H1299 cells (anti-HA IP, anti-V5 immunoblot), with ALLnN. A general note: A western blot detects proteins with antibodies after separation by electrophoresis.

B1: MKRN1 prey (Makorin ring finger protein 1 clone from a HeLa cDNA library fused to the activation domain of vector pB42AD) (protein, not shown: large carriers)
chain: MAEAATPGTTATTSGAGAAAATAAAASPTPIPTVTAPSLGAGGGGGGSDGSGGGWTKQVTCRYFMHGVCKEGDNCRYSHDLSDSPYSVVCKYFQRGYCIYGDRCRYEHSKPLKQEEATATELTTKSSLAASSSLSSIVGPLVEMNTGEAESRNSNFATVGAGSEDWVNAIEFVPGQPYCGRTAPSCTEAPLQGSVTKEESEKEQTAVETKKQLCPYAAVGECRYGENCVYLHGDSCDMCGLQLLHPMDAAQRSQHIKSCIEAHEKDMELSFAVQRSKDMVCGICMEVVYEKANPSERRFGILSNCNHTYCLKCIRKWRSAKQFESKIIKSCPECRITSNFVIPSEYWVEEKEEKQKLILKYKEAMSNKACRYFDEGRGSCPFGGNCFYKHAYPDAGREEPQRQKVGTSSRYRAQRRNHFWELIEERENSNPFDNDEEEVVTFELGEMLLMLLAAGGDDELTDSEDEWDLFHDELEDFYDLDL
B1: the binding entry in experiment [1], in experiment [2] and in experiment [3] was “binds” each time.

B2: MKRN1-V5 (enzyme, not shown: small tags and cut ends)
chain: B1 chain
Take B2: in experiment [4], the binding entry is recorded as “binds”.
